From article PMC6351030
These are yes or no findings as the source states them, for the method shown. In cells and extracts the contact can be indirect. Some results given as binding are weak or reduced against the parent protein; the word gives no strength. For part of these data: Where a sequence is shown, tags or fusion partners need not be part of it.

The chains behind the UniProt entries cited, without tags or fusion partners.
UniProt O76216: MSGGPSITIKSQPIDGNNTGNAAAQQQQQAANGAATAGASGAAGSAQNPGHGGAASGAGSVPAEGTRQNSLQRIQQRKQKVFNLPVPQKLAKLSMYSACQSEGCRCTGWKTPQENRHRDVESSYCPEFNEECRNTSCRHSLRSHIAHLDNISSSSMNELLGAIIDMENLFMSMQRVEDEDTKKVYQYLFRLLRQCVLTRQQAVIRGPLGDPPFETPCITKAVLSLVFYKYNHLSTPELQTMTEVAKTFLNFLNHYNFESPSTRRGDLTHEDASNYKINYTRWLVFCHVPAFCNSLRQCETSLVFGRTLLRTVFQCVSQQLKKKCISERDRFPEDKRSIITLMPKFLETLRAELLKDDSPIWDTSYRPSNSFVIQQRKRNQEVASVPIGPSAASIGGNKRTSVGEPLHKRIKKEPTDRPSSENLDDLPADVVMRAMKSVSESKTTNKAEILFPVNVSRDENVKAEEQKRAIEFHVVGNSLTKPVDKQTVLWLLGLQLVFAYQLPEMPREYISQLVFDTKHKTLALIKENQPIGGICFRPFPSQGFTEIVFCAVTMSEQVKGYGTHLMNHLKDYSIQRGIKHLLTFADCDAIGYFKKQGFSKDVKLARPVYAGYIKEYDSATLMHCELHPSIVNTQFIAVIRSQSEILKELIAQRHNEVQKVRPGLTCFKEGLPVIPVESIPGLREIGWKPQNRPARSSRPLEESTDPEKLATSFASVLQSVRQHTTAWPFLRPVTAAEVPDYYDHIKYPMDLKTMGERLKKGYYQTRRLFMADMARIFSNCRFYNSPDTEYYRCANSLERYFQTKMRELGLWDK

T1: ENY2 protein (enhancer of yellow 2) (D. melanogaster (endogenous in S2)) (UniProt Q9VYX1)
T1 sequence: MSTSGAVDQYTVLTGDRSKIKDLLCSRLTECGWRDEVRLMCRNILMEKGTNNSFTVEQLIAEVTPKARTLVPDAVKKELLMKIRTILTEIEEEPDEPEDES

T2: CG9890 protein (D. melanogaster (endogenous in S2)) (UniProt Q9W1V7)
T2 sequence: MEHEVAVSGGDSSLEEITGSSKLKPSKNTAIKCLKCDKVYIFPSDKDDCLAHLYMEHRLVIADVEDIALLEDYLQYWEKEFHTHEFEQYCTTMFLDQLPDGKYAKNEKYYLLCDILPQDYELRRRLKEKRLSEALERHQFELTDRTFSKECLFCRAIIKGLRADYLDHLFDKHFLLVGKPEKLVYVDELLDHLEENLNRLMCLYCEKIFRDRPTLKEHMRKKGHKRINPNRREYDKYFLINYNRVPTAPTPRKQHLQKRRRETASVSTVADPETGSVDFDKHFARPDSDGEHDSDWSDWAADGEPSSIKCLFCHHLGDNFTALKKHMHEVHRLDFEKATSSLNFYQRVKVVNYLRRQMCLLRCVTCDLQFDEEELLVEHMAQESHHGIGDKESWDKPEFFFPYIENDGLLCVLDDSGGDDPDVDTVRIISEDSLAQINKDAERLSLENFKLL

B1: CG9890 protein labeled with a 3xFLAG epitope (protein, UniProt Q9W1V7 1-452)
chain: T2 sequence
B2: ORC3 subunit of the ORC complex (protein, UniProt Q7K2L1 1-721)
chain: MDPTISVSKGCFVYKNGATRAGKKAASKRKRPAAESSSLLGKEVVQQPFYEEYRKAWNQINDHIADLQHRSYARTLEQLVDFVVGQAERDTPDEVLPTAALLTGINQPDHLSQFTALTQRLHAQRAAMVCVLQSRDCATLKAAVETLVFGLVEDNAEVEQMEDEDEDEDGAERDRKRLRRSQCTMKQLKSWYTNNFDSEQKRRQLVVILPDFECFNASVLQDLILILSAHCGSLPFVLVLGVATAMTAVHGTLPYHVSSKIRLRVFQTQAAPTGLNEVLDKVLLSPKYAFHLSGKTFKFLTHIFLYYDFSIHGFIQGFKYCLMEHFFGGNAFALCTDYSKALGRIKQLTHEDMETIRRLPSFRPYVEQINDCKRIIAVLTDDDYLKKKLPQLLRDCLLHFLLFRCSLEFLTELVGDLPRCPLGKLRRELYVNCLNRAIISTPEYKECLQMLSFLSKDEFVAKVNRALERTEQFLVEEIAPLELGEACTAVLRPKLEAIRLAVDEVVKATMATITTTSPNETRQATDHLTPVASRQELKDQLLQRSKEDKMRHQLNTPTTQFGRALQKTLQLIETQIVQDHLRALQDAPPIHELFVFSDIATVRRNIIGAPRAALHTALNNPHFYMQCKCCELQDQSLLVGTLPDLSVVYKLHLECGRMINLFDWLQAFRSVVSDSDHEEVAQEQIDPQIQARFTRAVAELQFLGYIKMSKRKTDHATRLTW
B3: Thoc5 (subunit of the THO complex) (protein, UniProt Q9W1F4 1-616)
chain: METILNTQFDQLQKAIEGIKEAKSKGQSTDEARIATTLMFVALKHANREVKHKIKAGRDKLHLEKCKVDLSRLQLQNLLYEVSHLKKEIVRCQKFKSRDTSLELLSEAEYSSELPDMPNDAEELSSHKQHLHRLDCELRLRKALDKQYSALLSSKQELLQDNLSHAQRYVSFAPALRTLQSATKPLHDALQLSLDVEWKLSAVVKYLPKPLYVLFIVLQSLQRVSEEQSFTAEVVGYESEAQMQELLKEKKCSTLNYRQTKKESGDREKIADKNNLDDSLAPHPLHICLTIGAAGSNQLVLQIRYFDFIKCATVWGQLNCSRNANGQGDTNFVHHLLRHLYPNDLGNELPIPGIQYELRSSDLTAEECVRYLKAKDYGKPFCWLQSMCSIATVNSSMLYKHELNLNKNNKEIIDRIARRLNSWQRLSQQIRGLTFKDIDLYSLQENIYPAGLSCSLVQWTAITHEELHSQISDALNSSSADKGITYNSYRAVIVRGSAKMECFIRIPSNYPLEMPLWILNVHWNGCLTAQNNSAIKMMEFWTNSLQPKHLEPNDCILYAQLFRTIYSFDIFLETEGSMQNTIEYNKEKPYISAFAKRSRSRPYKYIKKGSVYAFKQ
B4: TBP (subunit of the TFIID complex) (protein, UniProt P20227 1-353)
chain: MDQMLSPNFSIPSIGTPLHQMEADQQIVANPVYHPPAVSQPDSLMPAPGSSSVQHQQQQQQSDASGGSGLFGHEPSLPLAHKQMQSYQPSASYQQQQQQQQLQSQAPGGGGSTPQSMMQPQTPQSMMAHMMPMSERSVGGSGAGGGGDALSNIHQTMGPSTPMTPATPGSADPGIVPQLQNIVSTVNLCCKLDLKKIALHARNAEYNPKRFAAVIMRIREPRTTALIFSSGKMVCTGAKSEDDSRLAARKYARIIQKLGFPAKFLDFKIQNMVGSCDVKFPIRLEGLVLTHCNFSSYEPELFPGLIYRMVRPRIVLLIFVSGKVVLTGAKVRQEIYDAFDKIFPILKKFKKQS
B5: ORC2 subunit of the ORC complex (protein, UniProt Q24168 1-618)
chain: MSASNKGGYKTPRKENLMSIENLTNSEEESEDLNTAMVGNAVESQPKVTSRRSTRRPSPTKKYQAYQKESNGKGQEERIVVNYVEMSDERSSDAEDQEEEESIEESENAARPAAKDLHLIQSEYNVAGTSMFGFNTPKKRDAMALAALNATPCTPKTPKTPRLGVKTPDTKRKKSMDQPKTPAHVRTRVKKQIAKIVADSDEDFSGDESDFRPSDEESSSSSSSSDAGNSSDNDAADDEPKTPSRARRAIVVPVLPKTPSAARLRQSARAKKSNEFVPESDGYFHSHASSKILTSDHTLDRLKNPRLAADRVFSLLSEIKTSAEHEGSINAIMEEYRSYFPKWMCILNEGFNILLYGLGSKHQLLQSFHREVLHKQTVLVVNGFFPSLTIKDMLDSITSDILDAGISPANPHEAVDMIEEEFALIPETHLFLIVHNLDGAMLRNVKAQAILSRLARIPNIHLLASIDHINTPLLWDQGKLCSFNFSWWDCTTMLPYTNETAFENSLLVQNSGELALSSMRSVFSSLTTNSRGIYMLIVKYQLKNKGNATYQGMPFRDLYSSCREAFLVSSDLALRAQLTEFLDHKLVKSKRSVDGSEQLTIPIDGALLQQFLEEQEKK

biological target: T1, ENY2 protein (enhancer of yellow 2) (D. melanogaster (endogenous in S2)); experiment: co-IP; immunoprecipitation with affinity-purified rabbit anti-ENY2 antibodies from lysate of S2 cells expressing 3xFLAG-CG9890; Western blot with anti-3xFLAG antibodies; pre-immune IgG as negative control

Row | binding | Molecule
1 | binds | B1

biological target: T2, CG9890 protein (D. melanogaster (endogenous in S2)); experiment: co-IP; immunoprecipitation with polyclonal anti-CG9890 antibodies immobilised on Mab-sepharose from S2 nuclear lysate (MN III buffer: 20 mM HEPES KOH, 3 mM MgCl2, 0.1% NP40, 0.1 M KCl, pH 8.0; sonicated, DNase I treated), 3 h at +4 °C; Western blot; IgG of an unimmunized rabbit as negative control

Row | binding | Molecule
2 | binds | GCN5 (subunit of the histone acetyltransferase SAGA complex) (from UniProt O76216 1-813)
3 | binds | B2
4 | binds | B3
5 | binds | B4
6 | binds | B5
